Measured data: PubChem BioAssay AID504786 (Drosophila RNAi Screening Center, 2011)
In all, the deposit lists about 21,000 reagents; below is a random part of those that have a named target and a result. 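Primary screen; positive scores mean lost reporter signal, so the sign may be inverted from the usual convention.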 No sequences are given here.

- Aim: 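Fly genes required for HIF-dependent transcription when hypoxia is mimicked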 (primary screen)
- Cell system: Drosophila S2 cells with a stable HIF luciferase reporter
- Reagents: long dsRNA against Drosophila genes, about 0.2 µg dsRNA per well of a 384-well plate
- Duration: three days of knock-down, then 20 h of DFO before reading
- Treatment: desferrioxamine (DFO) at 100 µM, an iron chelator that mimics hypoxia, for 20 h
- Read-out: 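HIF reporter luminescence in cells given 100 µM DFO for 20 h, using the mouse ldh-a hypoxia-response element, scored as per-plate z-scores; higher means greater loss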
- Reading the numbers: z-score: higher = stronger loss of HIF reporter signal

predicted target,amplicon,"z-score, replicate 1","z-score, replicate 2","z-score, replicate 3","z-score, replicate 4"
Syn1 (GeneID 40424),DRSC11803,-0.4,-0.9,,
Syn1 (GeneID 40424),DRSC11804,-0.4,-0.2,,
CG5541 (GeneID 2768877),DRSC19946,-0.2,-0.8,,
Brd8 (GeneID 43460),DRSC14866,-0.5,-0.9,,
dhd (GeneID 31444),DRSC18761,-0.3,-0.2,,
Mst89B (GeneID 41972),DRSC16748,-0.3,-0.5,,
CG8728 (GeneID 35748),DRSC07251,-0.2,0.2,,
Argp (GeneID 261628),DRSC16510,-0.4,-0.7,,
CG34230 (GeneID 5740558),DRSC05317,-0.1,0,,
CG11052 (GeneID 49997),DRSC14288,0,-0.4,,
pHCl-2 (GeneID 43703),DRSC14306,0.1,0.9,,
Bet1 (GeneID 40094),DRSC10088,1.9,0.2,,

Targets above whose gene name starts with S or s (2):
predicted target,amplicon,"z-score, replicate 1","z-score, replicate 2","z-score, replicate 3","z-score, replicate 4"
Syn1 (GeneID 40424),DRSC11803,-0.4,-0.9,,
Syn1 (GeneID 40424),DRSC11804,-0.4,-0.2,,

The list goes on:
predicted target,amplicon,"z-score, replicate 1","z-score, replicate 2","z-score, replicate 3","z-score, replicate 4"
CG10669 (GeneID 43069),DRSC14261,-0.1,0.4,,
CG14969 (GeneID 38415),DRSC08428,-0.2,0,,
Ndg (GeneID 36089),DRSC06223,-0.3,-0.2,,
RNaseX25 (GeneID 38885),DRSC11259,-0.3,-0.5,,
CG15561 (GeneID 43692),DRSC15100,-0.4,-0.1,,
Prosbeta1 (GeneID 46058),DRSC07159,3.6,5.4,,
CG7227 (GeneID 34088),DRSC03032,-0.3,0,,
Ggamma1 (GeneID 35881),DRSC07435,-0.5,-0.6,,
CG3651 (GeneID 35440),DRSC03730,-0.1,-0.3,,
RpS3A (GeneID 43768),DRSC17168,6.9,4.4,,
Cpr78E (GeneID 40408),DRSC11807,-0.3,-0.4,,
Pdha (GeneID 31406),DRSC18413,0.1,0,,
CG14635 (GeneID 31032),DRSC17945,-0.2,-0.1,,
CG11350 (GeneID 38554),DRSC08181,-0.4,-1,2.4,0.4
HP1c (GeneID 42696),DRSC16166,-0.3,-0.7,-0.4,-0.4
CG30002 (GeneID 246384),DRSC05182,-0.2,-0.2,,
Nup205 (GeneID 33002),DRSC19432,0.2,1.5,,
Su(var)205 (GeneID 34119),DRSC03446,0.4,2.6,,
r-l (GeneID 42493),DRSC17042,-0.3,-0.3,0.2,1.5
Ulp1 (GeneID 32910),DRSC19339,-0.3,0,,
ebd1 (GeneID 38082),DRSC08565,-0.2,-0.1,,
Mcm2 (GeneID 40973),DRSC16734,0.1,0.2,,
